Some of the results follow. Shown are side measurements of this screen, not its main read-out; they come without a call. Most of these compounds were active or inconclusive in the main read-out, so they are no random draw. Words in brackets tell the shape of the fitted curve; partial curves, single points and poor fits give uncertain potencies.
Assay: qHTS Assay to Find Inhibitors of Chronic Active B-Cell Receptor Signaling
Conditions: ABC-DLBCL IkBa-CBG/CBR reporter, luminescence ratio (green luciferase fused to IkBa over red control in TMD8 lymphoma cells), 4 h
Method in brief: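 Compounds up to 46 uM were incubated four hours with TMD8 cells whose green CBG68 luciferase is fused to IkappaBalpha; red CBR luminescence normalised the signal, and concentration-effect curves were fitted to fusion, red and ratio data.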

[1] = measured here: CBR red luminescence, cell number
[2] = measured here: IkBa-CBG green luminescence

| SMILES | AC50 [1] | AC50 [2] |
| --- | --- | --- |
| O=C(NCCc1ccccc1)C1CCCN(C(=O)Nc2ccc(F)cc2)C1 (stereo unspecified) | 17.8 µM [rising, partial curve, poor fit] | – |
| N=c1oc2cc(O)ccc2cc1C(=O)Nc1nc2ccccc2s1 | 0.0517 µM [falling, full curve] | – |
| Cc1nc2sccn2c(=O)c1CCN1CCC(=C(c2ccccc2)c2ccc(F)cc2)CC1 | 6.51 µM [rising, single point] | – |
| CC1CCCCN1C(=O)NC12CC3CC(CC(C3)C1)C2 (stereo unspecified) | 20.6 µM [falling, single point] | – |
| CC(NC(=O)COC(=O)CNC(=O)c1ccccc1Cl)C1CC2CCC1C2 (stereo unspecified) | 23.1 µM [rising, single point] | – |
| Cn1c(N)c(C(=O)COC(=O)CCCc2c[nH]c3ccccc23)c(=O)n(C)c1=O | 5.01 µM [falling, partial curve, poor fit] | – |
| Cc1c(C(=O)OC2CCC(C)CC2)[nH]c2c1C(=O)CCC2 (stereo unspecified) | 0.291 µM [rising, full curve, poor fit] | – |
| N#CCC(=O)Nc1ccc(C(=O)OCC(=O)N2CCCC2=O)cc1 | 20.6 µM [falling, single point] | – |
| COc1ccc(-c2oc3ccccc3c2C(=O)OCc2ccccc2)cc1 | 14.1 µM [rising, partial curve] | – |
| COCCN(Cc1nc(-c2ccc(-c3ccccc3)cc2)oc1C)C(C)C | 0.316 µM [falling, full curve] | – |
| CC1CCCCN1CCNC(=O)c1ccc2c(=O)n(Cc3ccc(Cl)cc3)c(=S)[nH]c2c1 (stereo unspecified) | 17.8 µM [falling, single point] | – |
| COc1ccc(S(=O)(=O)N(CCc2ccccc2)CC(=O)NC(C)C)cc1 | 0.103 µM [falling, full curve, poor fit] | – |
| Clc1ccc(-c2nc3nc4ccccc4nc3n2Cc2ccco2)cc1 | 8.2 µM [falling, partial curve] | 25.9 µM [rising, partial curve, poor fit] |
| O=C(COc1cc2oc(=O)cc(-c3ccccc3)c2cc1Cl)NCC1CCC(C(=O)O)CC1 (stereo unspecified) | 7.08 µM [rising, partial curve] | – |
| COc1ccc(C(=O)/C=C/c2ccc(OC)c(Cn3nnc4ccccc43)c2)cc1 | 20.6 µM [falling, partial curve, poor fit] | 23.1 µM [falling, partial curve, poor fit] |
| Nc1ccccc1C(=O)N/N=C1/C2CN3CCN(C2)CC1(Cc1ccccc1)C3 | 11.2 µM [falling, partial curve, poor fit] | – |
| CC(C)[C@H](NC(=O)c1ccccc1F)C(=O)NC1CCCCC1 | 0.0058 µM [falling, full curve, poor fit] | – |
| O=C(CN1CCN(Cc2ccccc2)CC1)Nc1ccc([N+](=O)[O-])cc1C(=O)Nc1ccccc1F | 0.82 µM [rising, full curve, poor fit] | – |
| COc1ccc(NS(=O)(=O)c2ccc(-n3nnc4ccccc43)c([N+](=O)[O-])c2)cc1 | 0.13 µM [falling, full curve, poor fit] | – |
| COc1ccc(CN2CCN(C(=O)c3cccc4ccccc34)CC2)c(OC)c1OC | 2.24 µM [rising, full curve, poor fit] | – |

| SMILES | AC50 [1] | AC50 [2] |
| --- | --- | --- |
| COc1ccc(C(=O)NN=C2CCCC2)cc1OC | 10 µM [falling, partial curve, poor fit] | – |
| Cn1c(=O)c(C(=O)NNC(=O)c2ccc(Br)cc2)c(O)c2ccccc21 | 8.91 µM [falling, partial curve, poor fit] | – |
| COc1cccc(N2CCN(c3ccc(S(=O)(=O)N4CCN(C)CC4)cc3[N+](=O)[O-])CC2)c1 | 29.1 µM [falling, single point] | – |
| Cc1nc2ccc(C(=O)N/N=C/c3ccc(O)cc3)cc2[nH]1 | 7.94 µM [falling, partial curve, poor fit] | – |
| Cc1csc(NC(=O)CSC2=NS(=O)(=O)c3ccccc3N2)n1 | 14.6 µM [falling, partial curve] | – |
| Cc1oc2cc(O)cc(O)c2c(=O)c1-c1ccc2c(c1)OCCCO2 | 2 µM [rising, full curve, poor fit] | – |
| O=C(COC(=O)C1CC1)Nc1ccc(Oc2ccccc2)cc1 | 2.51 µM [rising, single point] | – |
| N#C/C(=C/c1ccccc1OCc1ccc(F)cc1)c1ccc(C(=O)O)cc1 | 15.8 µM [rising, partial curve, poor fit] | – |
| Fc1ccccc1/C=N/n1c(C2CCCCC2)n[nH]c1=S | 12.6 µM [rising, partial curve] | – |
| COC(=O)c1c(N)n(-c2ccc(N3CCOCC3)cc2)c2nc3ccccc3nc12 | 7.08 µM [rising, full curve, poor fit] | – |
| CCN1C(=O)/C(=C/c2ccc(OCc3ccc(C(=O)O)cc3)c(Cl)c2)NC1=S | 12.6 µM [falling, partial curve, poor fit] | – |
| Cc1cc(SCC(=O)NN)c2cc(Br)ccc2n1 | 17.8 µM [falling, single point] | – |
| C#CCOc1ccc(Br)cc1/C=N/O | 0.651 µM [rising, full curve] | – |
| CN(C)c1oc(-c2ccccc2Cl)nc1C#N | 16.4 µM [rising, single point] | – |
| CCOc1cccc2cc(-c3cn4c(n3)sc3cc(C)ccc34)c(=O)oc12 | 0.316 µM [falling, full curve, poor fit] | – |
| O=C(Nc1ccc(N2CCOCC2)nc1)c1ccccc1Cl | 14.1 µM [falling, partial curve, poor fit] | – |
| COC(=O)C(Cc1ccccc1)NC(=O)c1ccc(NS(=O)(=O)c2ccc3[nH]c(=O)[nH]c3c2)cc1 (stereo unspecified) | 20.6 µM [rising, single point] | – |
| COc1ccc2c(-c3ccc(OCCN4CCCCC4)cc3)c(-c3ccccc3OC)sc2c1 | 20.6 µM [falling, single point] | – |
| COCCNC(=O)C(=O)N/N=C/c1cccs1 | 15.8 µM [falling, single point] | – |

Part of the list above, set out differently:
SMILES	AC50 [1]	AC50 [2]
CC1CCCCN1C(=O)NC12CC3CC(CC(C3)C1)C2 (stereo unspecified)	20.6 µM [falling, single point]	–
COc1ccc(-c2oc3ccccc3c2C(=O)OCc2ccccc2)cc1	14.1 µM [rising, partial curve]	–
Clc1ccc(-c2nc3nc4ccccc4nc3n2Cc2ccco2)cc1	8.2 µM [falling, partial curve]	25.9 µM [rising, partial curve, poor fit]
COc1ccc(C(=O)/C=C/c2ccc(OC)c(Cn3nnc4ccccc43)c2)cc1	20.6 µM [falling, partial curve, poor fit]	23.1 µM [falling, partial curve, poor fit]
Cn1c(=O)c(C(=O)NNC(=O)c2ccc(Br)cc2)c(O)c2ccccc21	8.91 µM [falling, partial curve, poor fit]	–
Cc1csc(NC(=O)CSC2=NS(=O)(=O)c3ccccc3N2)n1	14.6 µM [falling, partial curve]	–
CN(C)c1oc(-c2ccccc2Cl)nc1C#N	16.4 µM [rising, single point]	–
CCOc1cccc2cc(-c3cn4c(n3)sc3cc(C)ccc34)c(=O)oc12	0.316 µM [falling, full curve, poor fit]	–
COC(=O)C(Cc1ccccc1)NC(=O)c1ccc(NS(=O)(=O)c2ccc3[nH]c(=O)[nH]c3c2)cc1 (stereo unspecified)	20.6 µM [rising, single point]	–

Reference: PubChem BioAssay AID493014 (National Center for Advancing Translational Sciences (NCATS), 2011)
